Results: PubChem BioAssay AID504834 (National Center for Advancing Translational Sciences (NCATS), 2011)
In all, about 320,000 compounds went through this assay and about 22,000 (6.9%) were called active. The inconclusive results got no clear call from the source; some entries with a clear call stand among them for comparison. Calls come from the whole dose curve; as a rule, active = well fitted inhibition curve with a large enough effect; inconclusive = small, poorly fitted or top-dose-only effect, or another doubt; inactive = no such curve, though single readings can be large or run the other way. Where the call is inconclusive, the potency comes from a doubtful curve fit.
% is set by controls: 0 for no effect and ±100 for the full control effect; potency is the fitted concentration of half-maximal effect.

Assay: Primary qHTS for delayed death inhibitors of the malarial parasite plastid, 96 hour incubation
Conditions: P. falciparum luciferase reporter growth; series mostly up to 28.7 µM; activity change, negative = inhibition: at the top concentration
In short: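 Erythrocytes infected with luciferase-expressing P. falciparum were dispensed at 2% hematocrit and 0.05% parasitemia (final), then incubated with compounds 96 hours at 37 C in 5% CO2. Luminescence after detection reagent addition reported growth.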
For CC(C)(c1ccccc1)c1ccc(OCC(O)CNC2CCN(Cc3ccccc3)CC2)cc1 (stereo not given), the Potency was active: 2.08 µM. In the case of CC(=O)Nc1cc[n+](CC(=O)c2cccc([N+](=O)[O-])c2)cc1, the Potency is reported as inconclusive: 6.57 µM [inhibitor, partial curve]. For COC(=O)c1ccc(OCCOc2ccccc2C)cc1, the Potency was active: 1.31 µM. With CCc1ccc(NC(=O)CSc2nc(=O)n(CCCN3CCOCC3)c3c2CCC3)cc1 the Potency was inconclusive: 18.5 µM [inhibitor, single point]. For Cn1c(=O)[nH]c(=O)c2c1nc(Br)n2CCCO, the Potency was inconclusive: 18.5 µM [inhibitor, single point]. With COc1ccc(OC)c(NC(=O)CSc2nncc3ccccc23)c1 the Potency was inconclusive: 10.4 µM [inhibitor, partial curve, poor fit]. In the case of CC1(C)Cc2noc(N)c2C(C)(C)N1OC(=O)c1scc2c1OCCO2, the Potency is reported as inconclusive: 10.4 µM [inhibitor, partial curve]. In the case of Cc1ccc(C2CC(c3ccccc3)=NN2c2ccccc2)o1 (stereo not given), the Potency is reported as inconclusive: 18.5 µM [inhibitor, single point]. With FC(F)(F)c1ccc(NC2=NCCC2)cc1 the Potency was inconclusive: 3.7 µM [inhibitor, single point]. With Cc1ccc(SCCC(=O)Nc2ccccc2C(=O)NC(C)C)cc1 the Potency was inconclusive: 18.5 µM [inhibitor, single point]. In the case of CC(NC(=O)c1cccc(S(=O)(=O)N(C)C)c1)c1nc2ccccc2[nH]1 (stereo not given), the Potency is reported as inconclusive: 4.15 µM [inhibitor, single point]. For Cc1cccn2cc(CNC(=O)c3ccc(Br)o3)nc12, the Potency was inconclusive: 4.15 µM [inhibitor, partial curve, poor fit]. With CC(=O)CC(=O)Nc1ccc(Cl)cn1 the Potency was inconclusive: 6.57 µM [inhibitor, partial curve, poor fit]. For Cc1ccc(CNC(=O)CCn2cc(-c3ccc(C)cc3)nc2-c2ccncc2)cc1, the Potency was active: 9.28 µM. With CC(=O)c1ccc(Nc2cc(C)nc3nc(C)nn23)cc1 the Potency was inconclusive: 16.5 µM [inhibitor, partial curve, poor fit]. For CCOCCCNC(=O)C(NC(=O)CNC(=O)c1ccccc1)c1ccc(C)cc1 (stereo not given), the Potency was active: 9.28 µM. In the case of COc1ccc(CN2CCNC(=O)C2CC(=O)N(C)Cc2ccon2)c(OC)c1 (stereo not given), the “activity change, negative = inhibition” value is reported as inactive: -6.39%. With CC(=O)Nc1ccc(NC(=O)CSc2ncnc3sc(C)c(C)c23)cc1 the Potency was inconclusive: 11.7 µM [inhibitor, partial curve]. With Cc1ccc(OCCC(=O)OCC(=O)NC2CCS(=O)(=O)C2)cc1 (stereo not given) the “activity change, negative = inhibition” value was inactive: 12.8%. In the case of Cc1cccc(OCC(=O)N2CCc3ccccc3C2)c1, the Potency is reported as inconclusive: 1.31 µM [inhibitor, partial curve, poor fit]. In the case of CC1Cc2ccccc2N1S(=O)(=O)c1ccc2c(c1)n(C)c(=O)c(=O)n2C (stereo not given), the Potency is reported as inconclusive: 13.1 µM [inhibitor, single point]. With Cc1ccc(C(CC(=O)N2CCCC2)c2ccccc2)c(O)c1 (stereo not given) the Potency was inconclusive: 18.5 µM [inhibitor, single point]. With Cc1ccn2c(=O)nc(SCc3cccc(C(F)(F)F)c3)nc2c1 the Potency was inconclusive: 18.5 µM [inhibitor, single point]. In the case of CCOc1cc(NC(=O)CCl)c(OCC)cc1NC(=O)CCl, the Potency is reported as inconclusive: 18.5 µM [inhibitor, single point]. For O=C(c1ccc(-c2ccccc2Cl)o1)N1CCN(S(=O)(=O)c2cccs2)CC1, the Potency was inconclusive: 18.5 µM [inhibitor, single point]. With Cc1csc(C(C)NC(=O)c2ccc(OC3CCN(CCc4ccccc4)CC3)cc2)n1 (stereo not given) the “activity change, negative = inhibition” value was inactive: 9.37%. For C=CCOc1ccc(CNc2nccs2)cc1, the Potency was inconclusive: 0.233 µM [inhibitor, full curve]. For COc1ccccc1NC(=O)c1ccc(NS(=O)(=O)c2cccc3cccnc23)cc1, the Potency was inconclusive: 10.4 µM [inhibitor, single point]. For COc1ccc(/C=N/NC(=S)Nc2cccc(C(=O)O)c2)cc1OC, the Potency was inconclusive: 8.28 µM [inhibitor, single point]. With O=C(Cc1ccc([N+](=O)[O-])cc1)N1CCc2ccccc2C1 the Potency was inconclusive: 13.1 µM [inhibitor, partial curve]. With COCC(=O)Nc1nnc(-c2cccs2)s1 the activity change, negative = inhibition was inactive: -1.96% [at 5.75 µM]. In the case of Cc1ccc(C(=O)Cn2nnc3ccccc32)cc1[N+](=O)[O-], the “activity change, negative = inhibition” value is reported as inactive: 295%. In the case of O=C(COc1ccc2ccccc2c1CN1CCOCC1)N1CCc2ccccc21, the Potency is reported as active: 10.4 µM. With CCCC(c1nnnn1C(C)(C)CC)N(Cc1ccco1)Cc1cc2ccc(OC)cc2[nH]c1=O (stereo not given) the “activity change, negative = inhibition” value was inactive: -19.4%. With Oc1ccc(/C=N/Nc2nc(-c3ccc(Cl)cc3)cc(C(F)(F)F)n2)cc1 the Potency was inconclusive: 18.5 µM [inhibitor, single point]. In the case of Cc1ccccc1NC(=S)N(CCN(C)C)C(C)c1ccco1 (stereo not given), the Potency is reported as inconclusive: 18.5 µM [inhibitor, partial curve, poor fit]. With Cc1cccc(CCNC(=O)c2cc(S(=O)(=O)N3CCCCC3)c[nH]2)c1 the Potency was inconclusive: 10.4 µM [inhibitor, single point]. For O=C1CC(=C(c2ccccc2)c2ccccc2)C(=O)N1CCN1CCN(c2cccc(Cl)c2)CC1, the Potency was inconclusive: 18.5 µM [inhibitor, single point]. In the case of Cc1ccccc1N(C(=O)CCC(=O)Nc1ccccn1)C(C(=O)NC(C)C)c1ccc(O)cc1 (stereo not given), the Potency is reported as inconclusive: 2.62 µM [inhibitor, partial curve, poor fit]. In the case of CC1CN(S(=O)(=O)c2cccc(C(=O)Nc3ccc(S(=O)(=O)Nc4ncccn4)cc3)c2)CC(C)O1 (stereo not given), the “activity change, negative = inhibition” value is reported as inactive: -4.09%. In the case of CC(C)CC(=O)/C(=C/c1ccc(N(C)C)cc1)n1cncn1, the Potency is reported as inconclusive: 10.4 µM [inhibitor, single point]. With O=[N+]([O-])c1cc(/C=N\Nc2ccccn2)ccc1Cl the Potency was active: 7.38 µM. With COC(=O)Cn1c(N)[n+](Cc2ccccc2)c2ccccc21 the “activity change, negative = inhibition” value was inactive: 58.2%. In the case of CN(Cc1cccs1)C(=O)CCc1ccc(S(=O)(=O)N2CCOCC2)cc1, the Potency is reported as inconclusive: 18.5 µM [inhibitor, single point]. With COc1ccccc1CNC(=O)COC(=O)Cn1cnc2ccccc21 the Potency was inconclusive: 18.5 µM [inhibitor, partial curve, poor fit]. With O=C(CSc1nc2ccccc2c(=O)n1-c1ccccc1F)NC1CCS(=O)(=O)C1 (stereo not given) the “activity change, negative = inhibition” value was inactive: 19%. With CCCC(=O)Nc1ccccc1NC(=O)c1ccc(OCC)cc1 the activity change, negative = inhibition was inactive: -12.9% [at 1.15 µM]. In the case of CCOC(=O)C1(CCCc2ccccc2)CCN(C2CCC2)CC1, the Potency is reported as inconclusive: 3.29 µM [inhibitor, partial curve]. In the case of COc1ccc(CNC(=O)CCS(=O)(=O)c2ccc(Br)cc2)cc1, the Potency is reported as active: 4.65 µM. With CCOc1ccccc1C(=O)NCC(=O)OCC(=O)N1C(C)CCCC1C (stereo not given) the “activity change, negative = inhibition” value was inactive: -13.3%. For CC(C(=O)Nc1cc([N+](=O)[O-])ccc1Cl)N1CCN(c2ccc(O)cc2)CC1 (stereo not given), the Potency was active: 13.1 µM. With CCOc1ccc(NC(=O)c2cccc(NC(C)=O)c2)cc1S(=O)(=O)N1CCCC1 the Potency was inconclusive: 8.28 µM [inhibitor, single point]. In the case of CCCN(CCC)S(=O)(=O)c1ccc(C(=O)Nc2cccnc2)cc1, the Potency is reported as inconclusive: 3.7 µM [inhibitor, partial curve, poor fit]. For COc1cccc(C(=O)Nc2ccc(N3CCN(C(=O)c4cccs4)CC3)cc2)c1, the Potency was inconclusive: 18.5 µM [inhibitor, single point]. In the case of Cc1cc(C(=O)O/N=C(\N)c2ccncc2)ccc1[N+](=O)[O-], the “activity change, negative = inhibition” value is reported as inactive: 83.9%. In the case of O=C1/C(=C/c2cccc(Br)c2)SC(=S)N1CCC(=O)N(CCO)c1ccccc1, the “activity change, negative = inhibition” value is reported as inactive: -19.5%. For O=S1(=O)CCC(NC(=S)Nc2ccc3ccccc3c2)C1 (stereo not given), the “activity change, negative = inhibition” value was inactive: 26.8%. With CN(CC(=O)Nc1ccc(Cl)cc1)S(=O)(=O)c1cccc2cccnc12 the Potency was inconclusive: 10.4 µM [inhibitor, single point]. With Cn1c(CC(=O)NNC(=O)c2ccc(F)cc2Cl)nc2ccccc21 the “activity change, negative = inhibition” value was inactive: -5.02%. With Cc1c(C(=O)N/N=C/c2ccccc2)sc(=S)n1C the Potency was active: 13.1 µM. In the case of COc1ccc(NC(=O)C2CCN(S(=O)(=O)c3ccc(OC)c(OC)c3)CC2)cc1, the Potency is reported as inconclusive: 6.57 µM [inhibitor, partial curve, poor fit]. With Cc1nn(-c2ccccc2)c(C)c1/C=N/NC(=O)CSc1nc2ccccc2c(=O)n1-c1ccccc1 the “activity change, negative = inhibition” value was inactive: -19.8%. With CC1SCC(NC(=O)c2ccccc2Cl)CS1 (stereo not given) the “activity change, negative = inhibition” value was inactive: 96.9%. For Oc1cc(NCc2ccc(F)cc2)cc2cccnc12, the Potency was active: 1.85 µM. With COc1cc(C(C)=O)ccc1OCC(=O)N(CCC1=CCCCC1)c1c(N)n(Cc2ccccc2)c(=O)[nH]c1=O the Potency was inconclusive: 9.28 µM [inhibitor, partial curve]. With COc1cc(NC(=O)c2ccc(NC3=NC4CS(=O)(=O)CC4S3)cc2)cc(OC)c1OC (stereo not given) the Potency was inconclusive: 0.0029 µM [inhibitor, full curve, poor fit]. With O=S(=O)(c1ccc2ccccc2c1)N1CCN=C1SCc1cccnc1 the “activity change, negative = inhibition” value was inactive: 4.13%. In the case of c1ccc(CN2CCC(N=C3NN=C(c4ccc5c(c4)OCCO5)CS3)CC2)cc1, the Potency is reported as inconclusive: 16.5 µM [inhibitor, single point]. With Cc1ccc(S(=O)(=O)NC(=O)NCC2CCN(S(=O)(=O)c3ccccc3)CC2)cc1 the “activity change, negative = inhibition” value was inactive: 41.6%. With Brc1ccc(CSc2nccn2-c2ccccc2)cc1 the Potency was inconclusive: 0.0415 µM [inhibitor, full curve, poor fit].
